Measured values reported in PubChem BioAssay AID540256 (National Center for Advancing Translational Sciences (NCATS), 2011).
Screen size: about 300,000 compounds; about 3,700 (1.2%) were called active. Inconclusive results, whose numbers are uncertain, are shown with a selection of clear calls. Calls follow the shape of the full dose curve; tested in HEK293 cells. Where the call is inconclusive, the potency comes from a doubtful curve fit.

Assay: qHTS for Inhibitors of binding or entry into cells for Lassa Virus; also: nearly all actives have a fitted effect of over 50% in size
Details: Lassa virus pseudotype entry inhibition, cell reporter; series mostly up to 37.9 µM
Potency is read from the fitted curve at half-maximal effect.

Structure (SMILES) | Potency
Cc1cccc(-c2nnc(C3CCN(S(=O)(=O)c4cccc(Cl)c4)CC3)o2)c1 | inactive
CN(C)c1ccc(C(O)P(=O)(OCc2ccccc2)c2ccc(N(C)C)cc2)cc1 (centres undefined) | inconclusive: 0.562 µM [inhibitor, full curve, poor fit]
O=C(OCC(=O)N1CCOCC1)c1ccc2c(c1)OCCO2 | inactive
COc1ccc(S(=O)(=O)N2Cc3ccccc3CC2C(=O)Nc2nccs2)cc1OC (centres undefined) | inconclusive: 35.5 µM [inhibitor, single point]
Cc1ccc(-c2ccc(=O)n(Cc3ccc(F)cc3Cl)n2)cc1 | inconclusive: 35.5 µM [inhibitor, single point]
O=C(Nc1ccc2c(c1)CCCN2C(=O)c1cccs1)c1ccccc1Cl | inconclusive: 5.01 µM [inhibitor, full curve, poor fit]
N#Cc1ccccc1CSc1nc2ccc(NC(=O)c3ccccc3C(=O)O)cc2s1 | inconclusive: 3.55 µM [activator, full curve]
Cc1cc(C)cc(OCC(=O)NN2Cc3ccccc3C2=N)c1 | inactive
Clc1ccc(-c2noc3ncnc(NCCc4ccccc4)c23)cc1 | active: 3.98 µM
Cc1cccc(Cn2c(N3CCN(c4ccccc4)CC3)nc3c2c(=O)n(C)c(=O)n3C)c1 | active: 5.8 µM
O=P(NC(c1ccccc1)c1ccccc1)(Oc1ccccc1)Oc1ccccc1 | inconclusive: 6.31 µM [inhibitor, single point]
O=C(/C=C/c1ccccc1)NC(=S)Nc1ccc(N2CCOCC2)cc1 | inactive
O=C(Cn1nc(-c2ccccc2)ccc1=O)NCc1ccc2c(c1)OCO2 | inconclusive: 6.51 µM [inhibitor, single point]
CCc1ccc(NC(=O)C2CCN(c3nn4c(=O)cc(C)nc4s3)CC2)cc1 | inconclusive: 3.55 µM [inhibitor, single point]
FC(F)(F)c1cc(-c2ccccc2)nc(N2CCCCC2)n1 | inactive
O=C(c1ccc(Cl)c(F)c1F)N1CCOCC1 | inconclusive: 0.073 µM [inhibitor, full curve, poor fit]
COCCNC(=O)c1cnc2sc(N3CCC(C)CC3)nn2c1=O | inactive
CCOC(=O)C1CCN(C(c2cccc(F)c2)c2c(O)cc(C)n(CCOC)c2=O)CC1 (centres undefined) | inactive
Cc1cccc(CNC(=O)CS(=O)(=O)c2cccc3nsnc23)c1 | inactive
COc1ccc(Cl)cc1NC(=O)c1nn(-c2ccc(C)cc2)c(=O)n(C)c1=O | inconclusive: 10 µM [inhibitor, partial curve, poor fit]
CCOC(=O)c1c(C)[nH]c(C)c1S(=O)(=O)N1CCCC(C(=O)N2CCN(c3cccc(C)c3C)CC2)C1 (centres undefined) | active: 11.2 µM
COc1ccc(N2C(S)=C(C#N)C(=O)NC23CCCCC3)cc1 | inactive
Cc1nn(C)cc1C(=O)/C=C/c1ccc([N+](=O)[O-])cc1 | inconclusive: 6.51 µM [inhibitor, partial curve]

Structure (SMILES) | Potency
CC1CCCN(C(=S)NCCc2ccccc2)C1 (centres undefined) | inconclusive: 25.1 µM [inhibitor, single point]
CCC(Sc1nc2ccccc2c(=O)n1CCc1ccc(OC)c(OC)c1)C(=O)N(CC)CC (centres undefined) | inconclusive: 28.2 µM [inhibitor, partial curve, poor fit]
Cn1cnnc1Sc1ccc(/C=C(\CCC(=O)O)c2nc3ccccc3s2)cc1[N+](=O)[O-] | inactive
CCN(CC)c1ccc(NC(=O)CN2CCN(CC(=O)Nc3ccc(F)cc3)CC2)cc1 | inactive
CCc1cccc(C)c1NC(=S)NCc1ccc2c(c1)cc(C)n2C | inconclusive: 8.2 µM [inhibitor, partial curve]
CCCN(C(=O)Cn1cnc2onc(-c3ccc(F)cc3)c2c1=O)c1cccc(Cl)c1 | inactive
COC(=O)c1ccc(CN2CCN(Cc3ccc(C(=O)OC)o3)CC2)o1 | inactive
CC1(C)CC2(C)OC(=N)C1(C#N)C2(C#N)C#N (centres undefined) | inconclusive: 5.01 µM [inhibitor, full curve, poor fit]
CC1=Nc2ccccc2/C1=C/c1sc(=S)n(-c2cccc(C(=O)O)c2)c1O | inconclusive: 35.5 µM [activator, single point]
CCn1c(=S)ccc2ccc(OC)cc21 | inactive
CN(C)c1ccc2[nH]c(O)c(C=Nc3ccc(S(N)(=O)=O)cc3)c2c1 | inconclusive: 12.5 µM [inhibitor, partial curve, poor fit]
CCOC(=O)c1c(NC(=O)c2ccc(S(=O)(=O)N(CC(C)C)CC(C)C)cc2)sc2c1CCN(C(=O)OCC)C2 | inactive
CCC(=O)N(CCC(c1ccccc1)c1ccc2c(c1)OCO2)Cc1ccc(OC(C)C)cc1 (centres undefined) | inconclusive: 12.6 µM [inhibitor, single point]
Cc1cc(C)cc(NS(=O)(=O)c2ccc3c(c2)c(=O)n(C)c(=O)n3C)c1 | inconclusive: 18.3 µM [inhibitor, partial curve, poor fit]
CS(=O)(=O)N(CC(O)Cn1c2ccccc2c2ccccc21)c1cccc2ccccc12 (centres undefined) | inconclusive: 22.4 µM [inhibitor, single point]
Cc1cccn2c(=O)c3cc(S(=O)(=O)c4ccc(F)cc4)c(=N)n(Cc4ccco4)c3nc12 | inconclusive: 35.5 µM [inhibitor, single point]
Cc1ccc(C)c(N2CN(Cc3ccco3)CNC2=S)c1 | inactive
O=[N+]([O-])c1ccc(-c2nc3ccc([N+](=O)[O-])cc3[nH]2)cc1 | inconclusive: 0.447 µM [activator, single point]
O=c1nc2n(-c3ccccc3F)c3ccccc3cc-2c(=O)[nH]1 | inconclusive: 12.6 µM [inhibitor, single point]
COc1cc(OC)c(Nc2nc3ccc(C(=O)c4ccccc4)cc3n3c(C)nnc23)cc1Cl | inactive
N#C/C(=C\c1cn[nH]c1-c1ccc(Cl)cc1)C(=O)NC1CC1 | inconclusive: 29.1 µM [inhibitor, single point]
Cc1ccc(C)c(S(=O)(=O)N2CCCOC2CNC(=O)C(=O)NCCc2ccccc2)c1 (centres undefined) | inconclusive: 15.8 µM [inhibitor, single point]
COc1ccccc1Nc1c2ccccc2nc2ccccc12 | inconclusive: 35.5 µM [inhibitor, single point]

In the list so far, 3 have a COOH group.
Structure (SMILES) | Potency
N#Cc1ccccc1CSc1nc2ccc(NC(=O)c3ccccc3C(=O)O)cc2s1 | inconclusive: 3.55 µM [activator, full curve]
Cn1cnnc1Sc1ccc(/C=C(\CCC(=O)O)c2nc3ccccc3s2)cc1[N+](=O)[O-] | inactive
CC1=Nc2ccccc2/C1=C/c1sc(=S)n(-c2cccc(C(=O)O)c2)c1O | inconclusive: 35.5 µM [activator, single point]

Further results follow:

Structure (SMILES) | Potency
CCCCN(CCCNC(=O)c1cc(Nc2ccc(OC)c(OC)c2)nc2ccccc12)Cc1ccccc1 | inconclusive: 35.5 µM [inhibitor, single point]
CC(=O)Nc1ccccc1-c1nnn(CC(=O)Nc2ccc3c(c2)OCCO3)n1 | inactive
Cc1cc(C)n(CC(=O)N2CCCC(C(=O)c3cccc(OC(C)C)c3)C2)n1 (centres undefined) | inactive
CCOC(=O)C1=C(C)N=C2SCCC(=O)N2C1c1ccc(OCc2ccccc2)cc1 (centres undefined) | inconclusive: 5.62 µM [inhibitor, single point]
CCSC1=NC(C)(C)C=C(/C=C/c2ccc(Cl)cc2Cl)N1 | inconclusive: 25.1 µM [inhibitor, single point]
COc1ccc(S(=O)(=O)n2ccc(-c3cnc(-c4ccccc4)s3)n2)cc1 | inconclusive: 11.6 µM [inhibitor, partial curve]
Cc1cc(NCc2ccccc2)n2ncc(-c3ccccc3)c2n1 | inconclusive: 5.62 µM [inhibitor, single point]
CCCNC(=O)CN1C(=O)c2ccccc2Sc2ncccc21 | inconclusive: 35.5 µM [activator, single point]
O=C(COc1ccccc1)Nc1ccc(Cl)cc1C(=O)c1ccccc1 | inactive
COc1ccc(C2=NN(CC(=O)Nc3ccccc3C)C(=O)CC2)cc1 | inactive
Cc1ccc(-n2ncc(C(=O)NCc3ccco3)c2C2CCN(C(=O)OC(C)(C)C)CC2)c(C)c1 | inconclusive: 7.08 µM [inhibitor, full curve, poor fit]
CCc1ccc(CN(Cc2cn[nH]c2-c2ccc(OC)cc2)C(=O)Nc2cc(Cl)ccc2OC)cc1 | inactive
CCN(CC)S(=O)(=O)c1ccc(C(=O)Nc2cccc(C)c2)cc1 | inconclusive: 32.6 µM [inhibitor, single point]
NS(=O)(=O)c1ccc(CCNC(=O)c2ccc3c(c2)N(Cc2ccccc2)CCS3)cc1 | inactive
CC(C)(C)OC(=O)NCCC(=O)N/N=C/c1cccc2cccnc12 | inconclusive: 10 µM [inhibitor, partial curve, poor fit]
CCCCCCOc1ccc(CN2CCN(CC)CC2)cc1 | inconclusive: 29.1 µM [inhibitor, single point]
CCN1C(=O)/C(=C\C(=O)c2cccs2)c2cc(Br)ccc21 | inconclusive: 25.9 µM [inhibitor, partial curve, poor fit]
FC(F)(F)c1nc(N2CCCC2)ncc1-c1nnnn1-c1ccc(Cl)cc1 | inconclusive: 32.6 µM [inhibitor, single point]
O=c1c(-c2ccc(O)cc2)coc2cc(OC3OC(CO)C(O)C(O)C3O)cc(O)c12 (centres undefined) | inconclusive: 29.1 µM [inhibitor, single point]
Cc1ccc(S(=O)(=O)NN2C(=O)/C(=C/c3ccc(F)cc3)SC2=S)cc1 | inconclusive: 2.24 µM [inhibitor, partial curve, poor fit]
Clc1ccccc1OCCn1nnc2ccccc21 | inconclusive: 3.16 µM [activator, partial curve]
CCN(Cc1nc(-c2ccc(OC)cc2)no1)C(=O)c1ccc2c(c1)OCO2 | inconclusive: 1 µM [inhibitor, single point]
CCN(CC(=O)Nc1c(F)cccc1F)C(=O)/C=C/c1ccc2c(c1)OCO2 | inconclusive: 0.501 µM [activator, full curve, poor fit]
